{"source": "PubChem BioAssay AID602196 – INSERM – 2012", "purpose": "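Genes whose knock-down alters cisplatin killing of lung cancer cells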", "system": "human A549 lung cancer cells", "knock-down reagent": "siRNA pair against human genes", "timing": "48 h transfection before cisplatin; time from cisplatin to read-out not stated", "treatment": "cisplatin at a dose killing half of control-siRNA cells; exact dose and duration not given", "measurement": "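Cisplatin cell death as a shift from the 50% death seen with control siRNA; siRNAs toxic or growth-blocking alone scored 0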", "scale": "two-siRNA summed score (-2 to +2): higher = both siRNAs protect from cisplatin killing; -2 means both sensitise", "hit rule": "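siRNAs harmful alone (LDH or WST-1) get 0; others get +1 for less and -1 for more cisplatin killing; genes are active when the two siRNAs give the same sign, summing to ±2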", "meaning of the calls": "active = both siRNAs shift cisplatin killing the same way; inactive = no consistent shift, or siRNA harmful alone", "note": "In all, the deposit lists about 23,000 reagents; shown is a random part of them. Of all reagents, 455 (2%) are marked active. 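Active includes both protection and sensitisation; some change values fall well beyond the stated -50 to +50 range.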 Unmarked entries are inactive. Further read-outs or replicates are left out here. Not stated in the record: the amount of reagent."}
{"Target gene":"OR2J2","two-siRNA summed score (-2 to +2)":0}
{"Target gene":"SLC25A22","two-siRNA summed score (-2 to +2)":0}
{"Target gene":"LOC399924","two-siRNA summed score (-2 to +2)":0}
{"Target gene":"WFDC3","two-siRNA summed score (-2 to +2)":0}
{"Target gene":"KCNJ11","two-siRNA summed score (-2 to +2)":0}
{"Target gene":"TNS3","two-siRNA summed score (-2 to +2)":0}
{"Target gene":"DUSP13B","two-siRNA summed score (-2 to +2)":-1}
{"Target gene":"LOC200916","two-siRNA summed score (-2 to +2)":0}
{"Target gene":"CEP95","two-siRNA summed score (-2 to +2)":0}
{"Target gene":"LOC284067","two-siRNA summed score (-2 to +2)":0}
{"Target gene":"CRIP2","two-siRNA summed score (-2 to +2)":0}
{"Target gene":"FAM117A","two-siRNA summed score (-2 to +2)":0}
{"Target gene":"LOC391459","two-siRNA summed score (-2 to +2)":1}
{"Target gene":"PTX3","two-siRNA summed score (-2 to +2)":0}
{"Target gene":"ZNF616","two-siRNA summed score (-2 to +2)":0}
{"Target gene":"CDH16","two-siRNA summed score (-2 to +2)":1}
{"Target gene":"OR11G2","two-siRNA summed score (-2 to +2)":0}
{"Target gene":"AWAT1","two-siRNA summed score (-2 to +2)":0}
{"Target gene":"CXCR6","two-siRNA summed score (-2 to +2)":-1}
{"Target gene":"MTG1","two-siRNA summed score (-2 to +2)":0}
{"Target gene":"FASTKD5","two-siRNA summed score (-2 to +2)":0}
{"Target gene":"FCHSD2","two-siRNA summed score (-2 to +2)":1}
{"Target gene":"ZNF517","two-siRNA summed score (-2 to +2)":0}
{"Target gene":"GRM8","two-siRNA summed score (-2 to +2)":0}
{"Target gene":"BTD","two-siRNA summed score (-2 to +2)":-1}
{"Target gene":"LOC392559","two-siRNA summed score (-2 to +2)":0}
{"Target gene":"LINC02609","two-siRNA summed score (-2 to +2)":1}
{"Target gene":"NIBAN2","two-siRNA summed score (-2 to +2)":0}
{"Target gene":"FFAR1","two-siRNA summed score (-2 to +2)":0}
{"Target gene":"OR52H1","two-siRNA summed score (-2 to +2)":0}
{"Target gene":"DKFZP564I122","two-siRNA summed score (-2 to +2)":0}
